Source: ChEMBL document CHEMBL3988442, “University of Dundee, Small-Polar-MMV Screening Library” (2021).

By UniProt entry, the sequences of proteins in these tests, tags left out.
UniProt E9BF75, entry or part of it: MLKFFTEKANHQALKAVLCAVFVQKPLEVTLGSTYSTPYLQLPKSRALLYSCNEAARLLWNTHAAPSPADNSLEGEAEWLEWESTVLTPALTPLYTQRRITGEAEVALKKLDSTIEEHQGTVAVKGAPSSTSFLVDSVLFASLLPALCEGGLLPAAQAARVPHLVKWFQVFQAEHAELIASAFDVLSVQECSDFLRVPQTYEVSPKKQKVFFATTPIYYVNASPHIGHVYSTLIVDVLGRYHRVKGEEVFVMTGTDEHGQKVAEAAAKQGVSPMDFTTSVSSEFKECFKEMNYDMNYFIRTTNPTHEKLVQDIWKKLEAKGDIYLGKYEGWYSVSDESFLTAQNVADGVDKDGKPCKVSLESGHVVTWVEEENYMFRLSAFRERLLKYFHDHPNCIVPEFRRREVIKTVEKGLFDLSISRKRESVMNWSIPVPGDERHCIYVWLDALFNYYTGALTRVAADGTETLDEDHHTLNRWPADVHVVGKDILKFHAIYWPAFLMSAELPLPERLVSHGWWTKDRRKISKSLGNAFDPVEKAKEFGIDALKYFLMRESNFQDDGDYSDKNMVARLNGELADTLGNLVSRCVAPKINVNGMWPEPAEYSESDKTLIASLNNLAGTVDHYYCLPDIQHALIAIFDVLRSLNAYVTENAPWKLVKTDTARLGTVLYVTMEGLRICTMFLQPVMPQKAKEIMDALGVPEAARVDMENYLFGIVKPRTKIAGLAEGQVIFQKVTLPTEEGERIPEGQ

Mtb heat-shock: 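Assay on Mycobacterium tuberculosis, filed only as a heat shock assay from Cornell; the read-out is not stated. The concentration is filed as 10 mM, unlikely as a test dose, so the dose is not known. The record gives no direction; compounds that gave an IC50 in retests scored well above the rest, so higher reads as stronger inhibition. About 69,000 compounds were tested under these conditions; 1.4% (about 930) showed 50% or more at least once.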
LdMetRS: 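Primary screen of methionyl-tRNA synthetase; the read-out is not stated. Target: Methionyl-tRNA synthetase (putative), Leishmania donovani (UniProt E9BF75). The test concentration is not given. The values are filed as inhibition. About 68,000 compounds were tested under these conditions; 0.035% (about 24) showed 50% or more at least once.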
Mtb growth Cornell: 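Whole-cell assay for inhibitors of Mycobacterium tuberculosis growth, labelled Cornell in the record; the read-out is not stated. The concentration is filed as 10 mM, unlikely as a test dose, so the dose is not known. The record gives no direction; compounds strong in two other growth screens of this library score well above the rest, so higher reads as stronger inhibition. About 53,000 compounds were tested under these conditions; 1.7% (about 900) showed 50% or more at least once.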

Results are percentages, as filed.
The record does not define 0% and 100%; most values in the screen are far below 50% and negative numbers occur (in some assays of this library far below -100).
Compounds were drawn at random from those tested, without regard to their results.
A dash means the value is not listed here; it may have been measured.

SMILES | Mtb heat-shock | LdMetRS | Mtb growth Cornell
CC(O)CCN(C)C(=O)Nc1ccc(Br)cc1 (stereo unspecified) | 3.03% | 4.313% | 4.214%
CCC(CC)n1nc(C)cc1NC(=O)C1CCCO1 (stereo unspecified) | 10.99% | 1.985% | -0.01368%
O=C(O)C(F)(F)F.O=C(c1cccc(F)c1)N1CCC2(CC1)CN(c1ccccn1)CCO2 | -11.95% | - | 3.213%
Cc1nn(C)c(N(C)C)c1CNC(C)COc1cccc(F)c1 (stereo unspecified) | -5.586% | -1.045% | 24.93%
CCC(C)N(Cc1ccsc1)C(=O)c1ccc2[nH]nnc2c1 (stereo unspecified) | -12.46% | 17.48% | 3.891%
CN(C(=O)c1ccc(C#N)cc1)c1nnc(C2CCOC2)s1 (stereo unspecified) | -1.804% | 11.05% | 28.92%
COc1ccccc1COCC(O)CN(C)c1ccc(C)cc1C (stereo unspecified) | -14.8% | 0% | -17.27%
CCN1CCN(C(=O)c2cnc3c(cnn3C3CCCC3)c2)CC1 | 0.09107% | 18.89% | -15.27%
CC(C)[C@H](NC(=O)N1CCN(c2ccc(Cl)cc2)CC1)C(=O)NC1CC1 | 14.7% | 11.21% | 4.583%
CCOC(=O)N1CCN(C(=O)c2snnc2-c2ccccc2)CC1 | -5.672% | 7.507% | -0.8325%
O=C(c1ccncc1)N1CCCC2(COCCN(c3ccccc3)C2)C1 (stereo unspecified) | - | 16.74% | -
CN1CCN(Cc2n[nH]c(=O)n2CC2CCCCC2)CC1 | 16.44% | 8.992% | -4.864%
Cn1cc(-c2cnc(N3CCOCC3)nc2)cc1C(=O)NCCC#N | - | 16.42% | -
CC(=O)N1CCOC(c2ccnc(N(C)C)n2)C1 (stereo unspecified) | -18.88% | 12.89% | 23.94%
CCc1nc(CN(C)C(=O)NCc2cccc(NC(C)=O)c2)cs1 | -1.189% | 3.958% | 9.096%
CC(C)CNC(=O)CNc1c(NCc2ccncc2)c(=O)c1=O | 18.97% | 17.56% | -0.5882%
O=C(c1cccnc1)N1CCN(c2ccnc3ccsc23)CC1 | -31.52% | 10.37% | 2.884%
Cc1nnc(N2CCCC3(CN(Cc4nccs4)CCO3)C2)o1 (stereo unspecified) | - | 8.125% | -
CC(=O)N1N=C(COc2ccc3c(c2)OCO3)OC1c1ccc(C)cc1 (stereo unspecified) | -14.74% | 15.16% | 13.19%
O=S(=O)(N1CCCCCC1)N1CCN(Cc2ccc(F)cc2Br)CC1 | -8.825% | 14.95% | 10.21%
CCO[C@H]1COC[C@@H]1NC(=O)c1c[nH]nc1C1CCCCC1 | -8.48% | 2.091% | -8.461%
Cc1ccc(C)c(S(=O)(=O)NCCNc2ccc(-n3cccc3)nn2)c1 | 35.9% | 10.79% | 29.41%
O=C1CC(c2ccc(O)cc2)c2c(c(C(=O)O)cn2-c2ccccc2)N1 (stereo unspecified) | 12.47% | 3.359% | -7.117%
Cc1nnc(CN(Cc2ccco2)Cc2cccc3c2OCO3)n1C | -27.25% | 8.659% | -4.958%
COc1cccc(N2CCN(Cc3ncc[nH]3)CC2=O)c1 | 31.25% | 14.16% | -18.02%
Cn1cc(-c2ncc3c(c2C(=O)O)CCN(Cc2ccccn2)C3)cn1.O=C(O)C(F)(F)F.O=C(O)C(F)(F)F | 44.96% | - | -2.395%
CCOc1ncnc2c1CCN(C(=O)CN(C)C)CC2 | - | 16.96% | -
CN1CCN(S(=O)(=O)c2cncc(F)c2)c2ccccc2C1 | -34.84% | 10.89% | -1.485%
CC(C)(C)n1ncc2c(=O)[nH]c(NC3CC=CC3)nc21 | 17.64% | 2.29% | 82.93%
O=c1[nH]c(CN2CCN(CC(F)(F)F)CC2)nc2ccccc12 | 8.861% | 22.07% | 9.356%
CCc1nc(CN(C)C2CCN(CC(=O)N(C)C)C2)no1 (stereo unspecified) | -7.816% | 9.036% | -
COc1cccc(CC(=O)N2CCc3ncnc(C)c3CC2)c1 | -21.46% | 14.86% | 23.87%
Cc1nc(C2CCCNC2)nc2c1CCCN2Cc1ccccn1 (stereo unspecified) | - | 17.02% | -
CCCc1cc(NC(=O)c2ccc(Cl)c(N3CCNC3=O)c2)n[nH]1 | 5.95% | 0.2841% | -
CC(C)c1cnc(CN(C)C2CCN(CCn3cc(C#N)cn3)C2)o1 (stereo unspecified) | -11.1% | 8.547% | -4.1%
COCCN1CCN(c2ccc(CN(C)C)cn2)CC1 | -2.542% | 4.478% | -27.89%
COCCN1CCC2(C1)c1ccccc1S(=O)(=O)N2Cc1ccccc1.O=C(O)C(F)(F)F (stereo unspecified) | 0.9433% | - | 8.247%
O[C@H]1[C@H](n2cc(-c3cncnc3)nn2)c2ccccc2C12CCNCC2 | -3.861% | 13.86% | 17.22%
Cc1nc(C)n(CC2CCCN(Cc3nc(C)c(C)o3)C2)n1 (stereo unspecified) | 3.364% | 8.497% | -14.52%
O=C(CC1CCCC1)N1CCC(c2noc(-c3ccccn3)n2)CC1 | -0.152% | 9.688% | 12.79%
[H][C@]12CC[C@]([H])(CN(C(=O)c3cccnc3)C1)N(Cc1ncc[nH]1)C2 | -6.285% | - | -85.78%
CNC(=O)[C@H]1C[C@@H]2CN(S(=O)(=O)c3ccc(OC)cc3)C[C@@H]2N1C | - | 11.11% | -
CSC(C)CC(=O)N1CCC(n2ccnn2)CC1 (stereo unspecified) | 2.175% | 9.964% | -35.65%
COCC(=O)N1C[C@H]2CCCC(OCc3cccnc3)[C@H]2C1 (stereo partly specified) | - | 11.11% | -
CC(=O)N1N=C(Cc2ccccc2)OC1C(=O)NCC(C)C (stereo unspecified) | 19.12% | 15.83% | -7.663%
NC(=O)CN1CCCC(c2cncc(Nc3ncccn3)n2)C1 (stereo unspecified) | -1.939% | 11.3% | 28.6%
N#CCCCN1CCCC1Cc1ccccc1 (stereo unspecified) | -2.78% | 16.08% | -2.639%
Cn1c(-c2ccccc2Cl)nc2cc(C(=O)NCCS(C)(=O)=O)cnc21 | 18.22% | 9.253% | -
CN(C)c1ncccc1CNS(=O)(=O)c1ccc(F)cc1F | -1.629% | 17.61% | -
O=C(c1cnccn1)N1C[C@@H]2C[C@@H](c3nc(C4CC4)cs3)O[C@@H]2C1 | - | 20.86% | -
COc1ccc(C(N)=O)cc1NCc1noc(-c2ccsc2)n1 | 3.015% | 9.699% | 3.35%
CC(C)c1nccc([C@@H]2C[C@@H]3CCN(Cc4ccco4)C[C@H]3O2)n1 | - | 0% | -
CCn1cnnc1CNC(=O)N1CCN(c2nc(C)c(C)s2)CC1 | 10.07% | 11.74% | -15.81%
COc1ccc([C@@H]2C[C@H](NC(C)=O)C[C@H](Cc3ccccc3)O2)cn1 | -9.246% | 14.53% | 7.803%
CCN1CCOCC2(CCCN(C(=O)c3ccncc3F)C2)C1 (stereo unspecified) | - | 0.9615% | -
CC(C)n1cnc2c(N3CCCC3)nc(C3CCNCC3)cc21 | - | 6.667% | -

Repeated from the top, 4 entries:

{"smiles": "CC(O)CCN(C)C(=O)Nc1ccc(Br)cc1", "stereo": "stereo unspecified", "Mtb heat-shock": 3.03, "LdMetRS": 4.313, "Mtb growth Cornell": 4.214}
{"smiles": "CCC(CC)n1nc(C)cc1NC(=O)C1CCCO1", "stereo": "stereo unspecified", "Mtb heat-shock": 10.99, "LdMetRS": 1.985, "Mtb growth Cornell": -0.01368}
{"smiles": "O=C(O)C(F)(F)F.O=C(c1cccc(F)c1)N1CCC2(CC1)CN(c1ccccn1)CCO2", "Mtb heat-shock": -11.95, "Mtb growth Cornell": 3.213}
{"smiles": "Cc1nn(C)c(N(C)C)c1CNC(C)COc1cccc(F)c1", "stereo": "stereo unspecified", "Mtb heat-shock": -5.586, "LdMetRS": -1.045, "Mtb growth Cornell": 24.93}